Among the data in patent US20110014193A1 (JURIDICAL FDN THE CHEMO SERO THERAPEUTIC RES INST, published 2011) are binding values, retold here.

Chains of the proteins cited; added tags and fusions are not shown. Lines headed by an entry give the natural chain unless they say otherwise; changes in a name come on top.
UniProt Q13797: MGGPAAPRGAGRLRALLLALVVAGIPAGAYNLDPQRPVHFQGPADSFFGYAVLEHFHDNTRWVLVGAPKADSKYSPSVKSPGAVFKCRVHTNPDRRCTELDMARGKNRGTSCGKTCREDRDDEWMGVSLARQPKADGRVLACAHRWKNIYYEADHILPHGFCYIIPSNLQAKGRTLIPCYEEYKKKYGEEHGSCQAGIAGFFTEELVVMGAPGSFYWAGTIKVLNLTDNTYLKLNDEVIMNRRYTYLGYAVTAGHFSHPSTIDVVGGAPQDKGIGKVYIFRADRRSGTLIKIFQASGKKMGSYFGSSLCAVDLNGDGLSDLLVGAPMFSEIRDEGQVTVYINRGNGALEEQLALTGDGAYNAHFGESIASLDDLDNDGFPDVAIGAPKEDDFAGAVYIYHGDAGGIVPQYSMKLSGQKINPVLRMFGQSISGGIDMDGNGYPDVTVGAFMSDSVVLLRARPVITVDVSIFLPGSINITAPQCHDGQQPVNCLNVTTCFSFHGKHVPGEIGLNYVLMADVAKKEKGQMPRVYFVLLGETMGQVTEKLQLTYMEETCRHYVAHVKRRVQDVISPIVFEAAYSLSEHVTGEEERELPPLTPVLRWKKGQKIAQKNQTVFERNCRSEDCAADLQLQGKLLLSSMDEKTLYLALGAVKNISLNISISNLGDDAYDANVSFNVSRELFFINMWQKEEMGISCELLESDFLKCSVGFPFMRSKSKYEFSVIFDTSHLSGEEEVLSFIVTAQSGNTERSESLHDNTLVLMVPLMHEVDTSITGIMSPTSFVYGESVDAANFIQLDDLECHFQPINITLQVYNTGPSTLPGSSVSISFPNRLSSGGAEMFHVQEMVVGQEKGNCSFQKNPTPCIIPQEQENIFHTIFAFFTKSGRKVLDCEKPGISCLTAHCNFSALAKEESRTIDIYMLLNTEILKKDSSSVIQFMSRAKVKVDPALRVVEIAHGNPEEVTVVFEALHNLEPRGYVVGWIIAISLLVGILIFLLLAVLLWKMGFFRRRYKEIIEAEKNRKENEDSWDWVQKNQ

Results are given in words; binding and its absence hold for the method and conditions named. Binding can be weak; no strength is given.

In assay [1] the target is T1, human α9 integrin molecule (human, UniProt Q13797 30-1035; P05556 21-798). The experiment in a line: CELL ELISA on SW480/hα9 cells, as in Example 4. On the technique in general: In an ELISA, binding on a coated surface is turned into a signal by an enzyme label.
The target in assay [2] is T1, human α9 integrin molecule. Put plainly: Cell ELISA on SW480/hα9 cells, comparison antibody.
The target in assay [3] is T1, human α9 integrin molecule. The experiment in a line: Cell ELISA on immobilized SW480 cells expressing human α9 integrin.
Assay [4] deals with T1, human α9 integrin molecule. The experiment in a line: Cell ELISA on SW480/hα9 cells; antibody treated with 0.4% hydrogen peroxide (25° C., 4 hr) against untreated antibody.
Assay [5] deals with T1, human α9 integrin molecule. The experiment in a line: Cell ELISA on SW480/hα9 cells, E. coli Fab expression supernatant.
Assay [6] deals with T1, human α9 integrin molecule. The experiment in a line: Cell ELISA on SW480/hα9 cells, comparison control Fab.
In assay [7] the target is T1, human α9 integrin molecule. Put plainly: Cell ELISA on SW480/hα9 cells, antibody in expression supernatant.

B1: chimeric Y9A2 antibody (antibody, V domains shown)
VH: QVQLQQSGAELANPGASVKMSCKASGYTLTTYWMHWVKQRPGQGLEWIGYINPSSGYTEYNQKFKDKATLTADKSSSTAYMQLTSLTSEDSAVYYCAIYGDYGDFYFDYWGQGTTLTVSS
VL: SIVMTQTPKFLLVSAGDRVTMTCKASQSVNTDVAWFQQKPGQSPKLLIYFASNHYTGVPDRFTGSGYGTDFTFTISTVQAEDLAIYFCRQDYSSPFTFGGGTKLEIKR
On to B1, for which the binding entry in assay [1], in assay [2], in assay [3] and in assay [4] was “binds” each time.

B2: Y9A2 antibody Fab wherein the 104th and 105th amino acids were substituted by alanine and tryptophan (Fab, V domains shown)
VH: QVQLQQSGAELANPGASVKMSCKASGYTLTTYWMHWVKQRPGQGLEWIGYINPSSGYTEYNQKFKDKATLTADKSSSTAYMQLTSLTSEDSAVYYCAIYGDYGAWYFDYWGQGTTLTVSS
VL: SIVMTQTPKFLLVSAGDRVTMTCKASQSVNTDVAWFQQKPGQSPKLLIYFASNHYTGVPDRFTGSGYGTDFTFTISTVQAEDLAIYFCRQDYSSPFTFGGGTKLEIKR
Take B2: the binding result in assay [5] was “binds”.

B3: Y9A2 antibody Fab wherein the 104th and 105th amino acids were substituted by serine and tryptophan (Fab, V domains shown)
VH: QVQLQQSGAELANPGASVKMSCKASGYTLTTYWMHWVKQRPGQGLEWIGYINPSSGYTEYNQKFKDKATLTADKSSSTAYMQLTSLTSEDSAVYYCAIYGDYGSWYFDYWGQGTTLTVSS
VL: SIVMTQTPKFLLVSAGDRVTMTCKASQSVNTDVAWFQQKPGQSPKLLIYFASNHYTGVPDRFTGSGYGTDFTFTISTVQAEDLAIYFCRQDYSSPFTFGGGTKLEIKR
For B3, in assay [5], the binding result is recorded as “binds”.

B4: Y9A2 antibody Fab (Fab, V domains shown)
VH: QVQLQQSGAELANPGASVKMSCKASGYTLTTYWMHWVKQRPGQGLEWIGYINPSSGYTEYNQKFKDKATLTADKSSSTAYMQLTSLTSEDSAVYYCAIYGDYGDFYFDYWGQGTTLTVSS
VL: SIVMTQTPKFLLVSAGDRVTMTCKASQSVNTDVAWFQQKPGQSPKLLIYFASNHYTGVPDRFTGSGYGTDFTFTISTVQAEDLAIYFCRQDYSSPFTFGGGTKLEIKR
B4: the binding result in assay [6] is on record as “binds”.

B5: Y9A2 antibody Fab wherein the 104th and 105th amino acids were substituted by alanine and leucine (Fab, V domains shown)
VH: QVQLQQSGAELANPGASVKMSCKASGYTLTTYWMHWVKQRPGQGLEWIGYINPSSGYTEYNQKFKDKATLTADKSSSTAYMQLTSLTSEDSAVYYCAIYGDYGALYFDYWGQGTTLTVSS
VL: SIVMTQTPKFLLVSAGDRVTMTCKASQSVNTDVAWFQQKPGQSPKLLIYFASNHYTGVPDRFTGSGYGTDFTFTISTVQAEDLAIYFCRQDYSSPFTFGGGTKLEIKR
In the case of B5, in assay [5], the binding result was “binds”.

B6: Y9A2 antibody Fab wherein the 104th and 105th amino acids were substituted by tryptophan and glutamic acid (Fab, V domains shown)
VH: QVQLQQSGAELANPGASVKMSCKASGYTLTTYWMHWVKQRPGQGLEWIGYINPSSGYTEYNQKFKDKATLTADKSSSTAYMQLTSLTSEDSAVYYCAIYGDYGWEYFDYWGQGTTLTVSS
VL: SIVMTQTPKFLLVSAGDRVTMTCKASQSVNTDVAWFQQKPGQSPKLLIYFASNHYTGVPDRFTGSGYGTDFTFTISTVQAEDLAIYFCRQDYSSPFTFGGGTKLEIKR
In the case of B6, in assay [5], the binding result is recorded as “binds”.

B7: RY9A2v501 antibody (antibody, V domains shown)
VH: QVQLVQSGAEVKKPGSSVKMSCKASGYTLTTYWMHWVKQRPGQGLEWIGYINPSSGYTEYNQKFKDRVTITADKSTSTAYMELSSLRSEDTAVYYCAIYGDYGDFYFDYWGQGTTVTVSS
VL: DIQMTQSPSSLSASVGDRVTITCKASQSVNTDVAWYQQKPGKAPKLLIYFASNHYTGVPSRFSGSGSGTDFTFTISSLQPEDIATYYCRQDYSSPFTFGGGTKVEIKR
Take B7: the binding result in assay [3] and in assay [4] was “binds” throughout.

B8: RY9A2v11(M34L)012 antibody (antibody, human IgG1, kappa, V domains shown)
VH: QVQLVQSGAEVKKPGSSVKMSCKASGYTLTTYWLHWVKQRPGQGLEWIGYINPSSGYTEYNQKFQGRVTITADKSTSTAYMELSSLRSEDTAVYYCAIYGDYGDFYFDYWGQGTTVTVSS
VL: DIQMTQSPSSLSASVGDRVTITCRASQSVNTDVAWYQQKPGKAPKLLIYFASNHYTGVPSRFSGSGSGTDFTFTISSLQPEDIATYYCRQDYSSPFTFGGGTKVEIKR
Regarding B8, the binding entry in assay [1] was “binds”.

B9: RY9A2v801 antibody (antibody, V domains shown)
VH: QVQLVQSGAEVKKPGSSVKVSCKASGYTLTTYWMHWVRQAPGQGLEWMGYINPSSGYTEYNQKFKDRVTITADKSTSTAYMELSSLRSEDTAVYYCAIYGDYGDFYFDYWGQGTTVTVSS
VL: DIQMTQSPSSLSASVGDRVTITCKASQSVNTDVAWYQQKPGKAPKLLIYFASNHYTGVPSRFSGSGSGTDFTFTISSLQPEDIATYYCRQDYSSPFTFGGGTKVEIKR
As to B9, in assay [3], the binding entry is recorded as “binds”.

B10: RY9A2v5(M34I)01 antibody (antibody, V domains shown)
VH: QVQLVQSGAEVKKPGSSVKMSCKASGYTLTTYWIHWVKQRPGQGLEWIGYINPSSGYTEYNQKFKDRVTITADKSTSTAYMELSSLRSEDTAVYYCAIYGDYGDFYFDYWGQGTTVTVSS
VL: DIQMTQSPSSLSASVGDRVTITCKASQSVNTDVAWYQQKPGKAPKLLIYFASNHYTGVPSRFSGSGSGTDFTFTISSLQPEDIATYYCRQDYSSPFTFGGGTKVEIKR
Consider B10, for which the binding entry in assay [7] and in assay [4] was “binds” each time.

B11: RY9A2v11011 antibody (antibody, V domains shown)
VH: QVQLVQSGAEVKKPGSSVKMSCKASGYTLTTYWMHWVKQRPGQGLEWIGYINPSSGYTEYNQKFQGRVTITADKSTSTAYMELSSLRSEDTAVYYCAIYGDYGDFYFDYWGQGTTVTVSS
VL: DIQMTQSPSSLSASVGDRVTITCQASQSVNTDVAWYQQKPGKAPKLLIYFASNHYTGVPSRFSGSGSGTDFTFTISSLQPEDIATYYCRQDYSSPFTFGGGTKVEIKR
For the molecule B11, the binding result in assay [7] was “binds”.

B12: RY9A2v12(M34L)012 antibody (antibody, human IgG1, kappa, V domains shown)
VH: QVQLVQSGAEVKKPGSSVKVSCKASGYTLTTYWLHWVRQAPGQGLEWMGYINPSSGYTEYNQKFQGRVTITADKSTSTAYMELSSLRSEDTAVYYCAIYGDYGDFYFDYWGQGTTVTVSS
VL: DIQMTQSPSSLSASVGDRVTITCRASQSVNTDVAWYQQKPGKAPKLLIYFASNHYTGVPSRFSGSGSGTDFTFTISSLQPEDIATYYCRQDYSSPFTFGGGTKVEIKR
For B12, the binding result in assay [1] is “binds”.

B13: RY9A2v11012 antibody (antibody, V domains shown)
VH: QVQLVQSGAEVKKPGSSVKMSCKASGYTLTTYWMHWVKQRPGQGLEWIGYINPSSGYTEYNQKFQGRVTITADKSTSTAYMELSSLRSEDTAVYYCAIYGDYGDFYFDYWGQGTTVTVSS
VL: DIQMTQSPSSLSASVGDRVTITCRASQSVNTDVAWYQQKPGKAPKLLIYFASNHYTGVPSRFSGSGSGTDFTFTISSLQPEDIATYYCRQDYSSPFTFGGGTKVEIKR
On to B13, for which the binding result in assay [7] was “binds”.

B14: RY9A2v5(M34L)01 antibody (antibody, V domains shown)
VH: QVQLVQSGAEVKKPGSSVKMSCKASGYTLTTYWLHWVKQRPGQGLEWIGYINPSSGYTEYNQKFKDRVTITADKSTSTAYMELSSLRSEDTAVYYCAIYGDYGDFYFDYWGQGTTVTVSS
VL: DIQMTQSPSSLSASVGDRVTITCKASQSVNTDVAWYQQKPGKAPKLLIYFASNHYTGVPSRFSGSGSGTDFTFTISSLQPEDIATYYCRQDYSSPFTFGGGTKVEIKR
For the molecule B14, the binding entry in assay [7] and in assay [4] was “binds” throughout.

B15: RY9A2v5(IAW)01 antibody (antibody, human IgG1, kappa, V domains shown)
VH: QVQLVQSGAEVKKPGSSVKMSCKASGYTLTTYWIHWVKQRPGQGLEWIGYINPSSGYTEYNQKFKDRVTITADKSTSTAYMELSSLRSEDTAVYYCAIYGDYGAWYFDYWGQGTTVTVSS
VL: DIQMTQSPSSLSASVGDRVTITCKASQSVNTDVAWYQQKPGKAPKLLIYFASNHYTGVPSRFSGSGSGTDFTFTISSLQPEDIATYYCRQDYSSPFTFGGGTKVEIKR
In the case of B15, in assay [1], the binding entry is listed as “binds”.
